Data: paper PMC7994200
No constants are given. Whether binding was seen depends on the method and setting. In cells and extracts the contact can be indirect. Some binding calls cover weakened binding; strength is not graded here.

Protein sequences, listed by entry. Tags and fused reporters are not part of them. Residues count along the entry.
UniProt Q9NZQ7, residues 19-290: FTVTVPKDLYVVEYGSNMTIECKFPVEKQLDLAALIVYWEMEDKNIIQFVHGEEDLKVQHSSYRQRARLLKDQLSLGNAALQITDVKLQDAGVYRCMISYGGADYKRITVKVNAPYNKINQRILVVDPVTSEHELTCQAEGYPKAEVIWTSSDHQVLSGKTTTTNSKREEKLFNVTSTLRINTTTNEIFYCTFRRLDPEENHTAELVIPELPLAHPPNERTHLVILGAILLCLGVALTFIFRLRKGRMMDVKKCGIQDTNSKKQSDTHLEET

Molecular target: PD-L1 (human (endogenous in 786-0 and ACHN)) (UniProt Q9NZQ7)
Test: co-IP; 500 ug of total cell lysate with 20 ul rabbit anti-PD-L1 antibody at 4 C overnight, protein G dynabeads 2 h at 4 C, western blot; 786-0 cells (E.V or HuR-overexpressing) and ACHN cells (control or HuR knock-down)

binding: binds
B1: CKLF-like MARVEL transmembrane domain containing protein 6 (CMTM6) (protein, UniProt Q9NX76 1-183)
chain: MENGAVYSPTTEEDPGPARGPRSGLAAYFFMGRLPLLRRVLKGLQLLLSLLAFICEEVVSQCTLCGGLYFFEFVSCSAFLLSLLILIVYCTPFYERVDTTKVKSSDFYITLGTGCVFLLASIIFVSTHDRTSAEIAAIVFGFIASFMFLLDFITMLYEKRQESQLRKPENTTRAEALTEPLNA
